Experimental findings from article PMC3899335, “ParABS System in Chromosome Partitioning in the Bacterium Myxococcus xanthus” are described below.

Weaker means in comparison with the reference protein, sequence or condition of that experiment. Protein sequences can lack the tags named with them.

This series has as its target T1, ParB (Myxococcus xanthus DK1050) (UniProt Q1CVJ4).
T1 sequence (looked up): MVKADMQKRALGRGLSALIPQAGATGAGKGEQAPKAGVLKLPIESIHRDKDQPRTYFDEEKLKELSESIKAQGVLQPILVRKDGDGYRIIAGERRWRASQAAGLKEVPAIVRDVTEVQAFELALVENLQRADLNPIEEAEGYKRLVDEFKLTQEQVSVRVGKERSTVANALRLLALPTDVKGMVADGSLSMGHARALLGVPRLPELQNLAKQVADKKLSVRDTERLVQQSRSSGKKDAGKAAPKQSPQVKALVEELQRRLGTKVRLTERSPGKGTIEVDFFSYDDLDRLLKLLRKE
The experiment in a line: EMSA (polyacrylamide). The conditions noted are these: only a faint, barely detected band at highest ParB; 40 mM Na-phosphate pH 8, 20 mM NaCl, 7% glycerol, 20 ug/ml BSA, 100 ug/ml sheared salmon sperm DNA, 30 C (30 min agarose, 1 h polyacrylamide); gels run at 4 C; recombinant protein; residues 1-296; label: 32P 5' end. (Mobility shift assays separate free from complexed probe on a gel.)

Take “ACTCACTCATGGCCTCCGTACCCTGCACAAGGTGAAGGATGACTCGAGCA (double strand) [mutated parS 50 bp (11 point mutations)]”: the binding result is listed as “binds more weakly”.
